Results as given in PubChem BioAssay AID1347423 (Functional Genomics Laboratory (NCATS/FGL), 2020).
Hit rate of the full screen: of about 52,000 sequences, about 210 (0.4%) were called active.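 Rule for the calls: active = gene whose silencing raises cell survival under the drug, median off-target-corrected z-score across its silencing RNAs 2 or more; inactive = the rest.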 Some of the results follow.

Experiment: Resistance to Poly (ADP-Ribose) Polymerase inhibitor: Gene Identification via Genome-wide siRNA Screen
Conditions: mouse BRCA2 R2336H ES cells, olaparib, CellTiter-Glo viability; hits give high values
Method in brief: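 Genome-wide siRNA screen (3 siRNAs/gene, 20 nM) in mouse ES cells carrying hypomorphic BRCA2 R2336H; olaparib 500 nM added 48 h post-transfection, CellTiter-Glo viability 72 h later. Normalized to plate-median negative control; MAD z-scores, gene median, seed-adjusted.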

| Sequence | z-score |
| --- | --- |
| GCUCCUAAUGAAAUGGUUUTT against Kif2a | inactive: 0.123 |
| GGCACACUCACUCCUUUGATT against C79407 | inactive: -2.3 |
| GCAACUGAGGCUUUCUUUGTT against Copg | inactive: -0.942 |
| GGGAAUAUGACUGAAUAUATT against Ss18 | inactive: 0.113 |
| GGAGUACAGUGAUGACAAGTT against Ing5 | inactive: 0.235 |
| GGAUAAAUCUCACUUCACATT against Etf1 | inactive: -1.87 |
| GGAACUCAUUAUGAUCUCCTT against 2410004C24Rik | inactive: 0.0941 |
| GCCAAUAACUUCACUGAUATT against Pi15 | inactive: -0.057 |
| CCCGGAGAAAUACAUUAAGTT against Exoc7 | inactive: 0.127 |
| GCUACAGUGAUACAUUAGATT against Zfp69 | inactive: 0.373 |
| CGUUAUUUGCUGACAAUGUTT against Tas2r119 | inactive: 0.0676 |
| CCAAUUUUCAAGAUCGGUCTT against Akap2 | inactive: -0.162 |
| GGACAAACAUUGGAUUGAUTT against 0610009C03Rik | inactive: 0.453 |
| GGAGAAAAAGAUCUCAGCUTT against D830039M14Rik | inactive: 0.0848 |
| GGCCUUACUAAAUAUACAUTT against 4931412G03Rik | inactive: 0.474 |
| GGUCCUGUUGGAGAUGAUATT against Ube2d2 | inactive: -1.54 |
| GGAAAUCCAGAAGAAAUUATT against Stmn1 | inactive: 0.357 |
| GGAGCAGAAGAAAUAUCUUTT against Olfr13 | inactive: -0.493 |
| GGAAUUGCACUUUUCCAAUTT against Phlda1 | inactive: 1.34 |
| GCUGCUUUCGUGUAGAAUGTT against Snapc1 | inactive: -0.823 |
| GGCAAAUCUCAUGCAUAAUTT against Ahsg | inactive: -0.254 |
| GGUAACCGUGUUCUUAUGGTT against Fgf13 | inactive: -1.28 |
| GGUGGCCCUUAAACGGAAGTT against 4921511F01Rik | inactive: -1.62 |
| GGCUUUUGACCUCUUCGAUTT against Vav1 | inactive: 0.479 |
| GGCAUGGAAAAUUCUAGGGTT against 1700030A21Rik | inactive: -0.0465 |
| GGUACAGAAUAUGUCACAGTT against Olfm3 | inactive: 0.413 |

Pulled one by one from the entries so far:

| Sequence | z-score |
| --- | --- |
| GCCAAUAACUUCACUGAUATT against Pi15 | inactive: -0.057 |
| GCUACAGUGAUACAUUAGATT against Zfp69 | inactive: 0.373 |

(listing goes on)

| Sequence | z-score |
| --- | --- |
| GGAGGUGCUAACCUAACAGTT against Ggh | inactive: 0.22 |
| GGACAUUGCUAACUGCCUUTT against Snx16 | inactive: -1.74 |
| GGCAAGAGGUAUCAAGGUGTT against Ctsd | inactive: 2.2 |
| GCUUCAACAUGCUUUGUUUTT against A430010J10Rik | inactive: -0.207 |
| GCCACUCUGAUUCUCUAGATT against Cdc25a | inactive: -0.00977 |
| GGAUUUGGGUUAGAUCUUUTT against Cpeb3 | inactive: 0.125 |
| CCUAUCAGACUGUAAUAAGTT against Fbxl10 | inactive: 0.388 |
| GCCAAGUUCUCGAAUAUUATT against 1200006O19Rik | inactive: 0.981 |
| GGAAAGUCUGUUUUUCACUTT against Adh5 | inactive: 0.149 |
| GCUCAGUACCGCACAACCATT against AW557805 | inactive: 0.762 |
| GCGAGUAGGCAUGAUCGUUTT against A030011M19 | inactive: 2.07 |
| GGAGUGUAUGCAGAAGUUUTT against 1700030A21Rik | inactive: -0.0931 |
| GGAAGUAUCAAUACUUUCCTT against Pkdrej | inactive: 0.493 |
| CGAACUACCAGACAUGACUTT against D130064H19Rik | inactive: 0.0699 |
| GCGGCUUGCCAAGACAGUATT against Grpr | inactive: -1.22 |
| CCUUGAAAUACUGAGUGACTT against AU067695 | inactive: 1.17 |
| GGAGUUCUUUCUGAGGUGUTT against 2410003P15Rik | inactive: -0.204 |
| GGGCUGGCACUGGAAAUAGTT against 1110061L23Rik | inactive: -0.314 |
| CCCAGACUUAUUUCAUCACTT against Rgs12 | inactive: 0.725 |
| GCACCAGGCCAAAUGAAGUTT against Srrp | inactive: -0.514 |
| GGAGAUUGUGCUGAAGUUUTT against Tmc3 | inactive: -0.663 |
| GGAGGAUUGUUUGAACCAATT against Myrip | inactive: -1.42 |
| GGAAAAUGGAAGAAAAGCATT against Ddhd1 | inactive: -1.04 |
| GGGCUUUAGCCUGAGCGAUTT against Gpc1 | inactive: -1.16 |
| GCUGUUGUUCAAUGCCCUGTT against Olfr392 | inactive: 0.712 |
| GGUGGCUGAAGAUGUGACUTT against Ttyh1 | inactive: -0.579 |

| Sequence | z-score |
| --- | --- |
| GGUCUUCAUGGUCAAAGUGTT against Fzd10 | inactive: 1.41 |
| GCCUGUUAUAUGUGGCCUUTT against Olfr1352 | inactive: -2.61 |
| GACCAUUAACUUGAUUUUGTT against Lsm8 | inactive: 0.533 |
| GCGACCAGCAGGUCAAAAUTT against Hoxd12 | inactive: 1.2 |
| GGAACUUAUACAAAAAAGCTT against Spata6 | inactive: -1.2 |
| CCCUGAAUUGCAACCUAUUTT against Olfr867 | inactive: 0.228 |
| CUCUUCAACGAGUGUAAAATT against Klra7 | inactive: 1.26 |
| CCUGAAAACCAUGCAAUACTT against Tas2r125 | inactive: -1.52 |
| GGAGUCUUGGCCCUUUAAUTT against Zcchc12 | inactive: -0.774 |
| CCGUUUUUUUCUUACAAUGTT against 5430431G03Rik | inactive: -0.39 |
| GCCGUGCAAAGUUUAUUCATT against Txndc3 | inactive: 0.231 |
| GAUGCCUUUUUUGUAGGCATT against Olfr539 | inactive: -1.14 |
| GGAUCCUGACUCUCCUCUUTT against Fhl3 | inactive: 0.394 |
| GGAUGUGAAUCUGCGCAAUTT against Dpep3 | inactive: 2.23 |
| CCUGCUCAUAAUUCUGUGUTT against Olfr855 | inactive: -0.699 |
| GGACAUAAGUGACAGACAUTT against Chrnb2 | active: -1.32 |
| GGUUUGUGCCUUUAUAGUGTT against Ppm1h | inactive: 0.446 |
| CCUUAUAAAAGCUACGAGGTT against Hsd3b7 | inactive: 1.34 |
| GGAGAAUGCCACAACUACATT against 425O18-1 | inactive: -0.248 |
| GCCCAAACGAAAAAUGGCCTT against Abl1 | inactive: 0.454 |
| CGAUACUGUGCAAAGAAUCTT against BC027231 | inactive: -1.68 |
| CCCAUAUCCUGUAAAAUACTT against Usp7 | inactive: 3.05 |
| GGAUGAACAGCUGUAGAAATT against 3230401I01Rik | inactive: -0.369 |
| GGACACCAAAGUGAAUACATT against Mucdhl | inactive: -0.239 |
| GGAUGAUGCCCGAAAGAACTT against Zfp536 | inactive: 0.289 |
| GGUCAUGCGGAGCAAAGAATT against Sirt5 | inactive: -0.406 |

| Sequence | z-score |
| --- | --- |
| GGAAAGAAGCAACCACUUCTT against 4833439L19Rik | inactive: -0.302 |
| GGAUGGACUAAAUGAUGAUTT against Ythdf2 | inactive: 0.183 |
| GGACUGACAGAGUCACUUGTT against Olfr733 | inactive: -1.98 |
| GCUUGUGCGUCCUUUCUGUTT against Nmu | inactive: -0.923 |
| GCUGGAAGAUAGUGCUUUUTT against Itpr1 | inactive: 1.15 |
| GGAACUGAAAAAGUUGUUGTT against Niban | inactive: -0.191 |
| GGCUGAAUGUGAGAAUAGCTT against Map3k14 | inactive: -0.827 |
| GGCAUUGAUAAAGAUGGCATT against Grip1 | inactive: -0.4 |
| CCUUAAUAAACUAUGCUGCTT against 2810439M11Rik | inactive: -1.83 |
| CGGCUGAACAUGGAACAACTT against Gpc3 | inactive: 0.264 |
| GGCGAAUUAAUUAACCGCCTT against Abcb10 | inactive: 0.431 |
| GCAAAUUCUCGGUGUCAAATT against Ezh2 | inactive: 1.43 |
| GGGUCAACUACUCACACUGTT against Crhr2 | inactive: 0.0689 |
| CGAGUCAUUACCAAUUACUTT against F13a | inactive: -0.503 |
| GCCAUUUCGUUCUCUGGGUTT against Olfr161 | inactive: 1.3 |
| GGGCUAUGUGCUCUUUUGUTT against Edg6 | inactive: 0.487 |
| GGUCUCACCAUCUUAACCCTT against Catsper1 | inactive: -1.49 |
| GGACCAUUCUGGCUACUCATT against 6430502M16Rik | inactive: -3.27 |
| GGAAAAAUAUGAGUCUUCCTT against Serpinb2 | inactive: -0.309 |
| CUAGCAGGGUCAGAAUGUUTT against Olfr331 | inactive: -2.41 |
| GGGACAAUACUUUCUUCUATT against Meig1 | inactive: 0.409 |
| GGAUAUCAAGAAGAGCCUGTT against Ptprr | inactive: 2.24 |
| GGAGAUCUGUGAUGAGGUGTT against 0610006K04Rik | inactive: -2.24 |
| GGUAUACUUCAAAAGAAGGTT against H2-Q1 | inactive: -0.164 |
| AUGCUUUGAUCAGUAUGAATT against V1rh17 | inactive: -0.198 |
| CCCAAGCCUUUAAACGGAGTT against Cbln3 | inactive: -0.0423 |

An excerpt of these results, with each value named:
GGCAUUGAUAAAGAUGGCATT against Grip1
  z-score: inactive: -0.4
GGAGAUCUGUGAUGAGGUGTT against 0610006K04Rik
  z-score: inactive: -2.24
AUGCUUUGAUCAGUAUGAATT against V1rh17
  z-score: inactive: -0.198
